From the supplement of paper PMC6289059
“And” between values parts separate entries of the source, which are not always exact repeats. Identical values can stand only once. The list shows a part of the results. Many values rest on one well or one pass, so single values are uncertain.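 Hepatocyte-like cells derived from human stem cells with CRISPR-disrupted DGUOK model liver mtDNA depletion syndrome. Each well's ATP signal was scored against other wells on the same plate, and drugs scoring 3 or above were primary hits.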

Each compound was assayed on DGUOK Δ14/Δ5 iPSC-derived hepatocyte-like cells (SV20) (assay: ATP level (CellTiter-Glo luminescence) Z score relative to plate distribution, under 2-DG glycolysis block; higher = more cellular ATP (rescue of mitochondrial ATP production)). Details: 5 µM; treatment time: day 15 to day 20 of differentiation (5 days); 2-deoxy-D-glucose: 20 mM for 24 h before assay.

SMILES | ATP level
O=C(O)/C=C/c1ccc(O)c(O)c1 | inactive: 1.71
N[C@@H](Cc1cc(I)c(Oc2cc(I)c(O)c(I)c2)c(I)c1)C(=O)O | inactive: 0.627
Cc1cc(=O)oc2cc(O)c(O)cc12 | inactive: 1.79
COc1cc(O)c(C(C)=O)c(O)c1 | inactive: 0.744
N=C(N)NC(=O)Cc1c(Cl)cccc1Cl | inactive: 1.46
COc1cc(O)c(C(=O)c2ccccc2)cc1S(=O)(=O)O | inactive: 0.849
COc1cc(OC)c2c(=O)c(O)c(-c3ccc(OC)c(OC)c3)oc2c1 | inactive: 0.0536
O=C(O)CCCCCCCCCCCC[C@@H]1C=CCC1 | inactive: 0.761
CNCc1ccccc1 | inactive: -1.39
CN1C(=O)CC(c2ccccc2)C1=O (stereo not given) | inactive: 1.46
CC(O)C(=O)O.N (stereo not given) | active: 3.92
C=C(C)CCCC(C)CCOC(C)=O (stereo not given) | inactive: -1.4
CN(C)CCN(Cc1ccccc1)c1ccccn1 | inactive: -1.11
CC(=O)O[C@@]12CO[C@@H]1C[C@H](O)[C@@]1(C)C(=O)[C@H](O)C3=C(C)[C@@H](OC(=O)[C@H](O)[C@@H](NC(=O)OC(C)(C)C)c4ccccc4)C[C@@](O)([C@@H](OC(=O)c4ccccc4)[C@H]21)C3(C)C | inactive: 0.0317
Nc1ncnc2c1ncn2[C@@H]1O[C@H](CO)[C@@H](O)[C@H]1O | inactive: 0.886
Clc1ccc(CSC(Cn2ccnc2)c2ccc(Cl)cc2Cl)cc1 (stereo not given) | inactive: 1.18
C[n+]1cc2c3c(ccc2c2ccc4cc5c(cc4c21)OCO5)OCO3 | inactive: -14.7
COc1ccc2c(c1)OCC(Cc1ccc(O)c(OC)c1)C2=O (stereo not given) | inactive: -4.44
C[C@]12CC[C@@H]3c4ccc(O)cc4CC[C@H]3[C@@H]1CC[C@@H]2O | inactive: -0.518
CCCN(CCC)S(=O)(=O)c1ccc(C(=O)O)cc1 | inactive: 1.93
CCN(CC)C(=O)c1cccc(C)c1 | active: 5.31
CCN(CC)C(=O)c1cccnc1 | inactive: 2.82
COc1ccc2[nH]c([S+]([O-])Cc3ncc(C)c(OC)c3C)nc2n1 (stereo not given) | inactive: -3.55
CN(C)CCOC(c1ccccc1)c1ccccc1 | inactive: -4.91
C=CCCCCCCCCCCCc1ccco1 | inactive: -0.501
CC(=O)[C@H]1CC[C@H]2[C@@H]3CCC4=CC(=O)CC[C@]4(C)[C@H]3CC[C@]12C | inactive: -4.16
CC(=O)O[C@H]1C[C@@H](OC(C)=O)C(C)(C)[C@@H]2C[C@@H](OC(C)=O)[C@]3(C)[C@H](CC[C@@]4(C)[C@H](c5ccoc5)OC(=O)[C@H]5O[C@@]534)[C@@]12C | inactive: 1.47
CN(C)CC/C=C1/c2ccccc2Sc2ccc(Cl)cc21 | inactive: -6.49

SMILES | ATP level
CC1(C)C(=O)C=C[C@]2(C)[C@H]3CC[C@@]4(C)[C@H](c5ccoc5)OC(=O)[C@H]5O[C@]54[C@]3(C)C(=O)C[C@@H]12 | inactive: 0.0261
CNCCCC1c2ccccc2C=Cc2ccccc21 | inactive: -7.59
CCOC(=O)C1=C[C@@H](OC(CC)CC)[C@H](NC(C)=O)[C@@H](N)C1 | inactive: -0.802 and inactive: -0.0931
C[C@]12CCC(=O)C=C1CC[C@@H]1[C@@H]2[C@@H](O)C[C@@]2(C)[C@H]1CC[C@]2(O)C(=O)CO | inactive: -1.22
Oc1ncnc2[nH]ncc12 | inactive: 1.15
c1ccc2c(Cc3c[nH]c4ccccc34)c[nH]c2c1 | inactive: -3.58
CO/N=C(\C(=O)N[C@@H]1C(=O)N2C(C(=O)OCOC(=O)C(C)(C)C)=C(/C=C\c3scnc3C)CS[C@H]12)c1csc(N)n1 | active: 3.77
CN(N=O)C(=O)N[C@H]1C(O)O[C@H](CO)[C@@H](O)[C@@H]1O (mixture of isomers) | inactive: -0.279
CCCc1cc(=O)[nH]c(=S)[nH]1 | inactive: 0.182
COc1ccc2oc(-c3ccccc3OC)cc(=O)c2c1 | inactive: 0.326
CN1CCc2c(c3ccccc3n2Cc2ccccc2)C1 | inactive: -6.12
Fc1ccc(C(c2ccc(F)cc2)N2CCN(C/C=C/c3ccccc3)CC2)cc1 | inactive: 0.822
Cc1ccc(Nc2c(F)cccc2Cl)c(CC(=O)O)c1 | inactive: 2.33
CC(=O)Nc1cc2ccccc2oc1=O | inactive: -0.557
COc1ccc(/C=C/C(=O)O)cc1OC | inactive: -2.53
CCCCC(=O)O[C@H]1CC[C@H]2[C@@H]3CCc4cc(O)ccc4[C@H]3CC[C@]12C | inactive: 0.0832
N=C(N)c1ccc(OCCCCCOc2ccc(C(=N)N)cc2)cc1 | inactive: -8.8
O=C(OC[C@H]1O[C@@H](OC(=O)c2cc(O)c(O)c(OC(=O)c3cc(O)c(O)c(O)c3)c2)[C@H](OC(=O)c2cc(O)c(O)c(OC(=O)c3cc(O)c(O)c(O)c3)c2)[C@@H](OC(=O)c2cc(O)c(O)c(OC(=O)c3cc(O)c(O)c(O)c3)c2)[C@@H]1OC(=O)c1cc(O)c(O)c(OC(=O)c2cc(O)c(O)c(O)c2)c1)c1cc(O)c(O)c(OC(=O)c2cc(O)c(O)c(O)c2)c1 | active: 4.23
Cc1cc(O)c(C)c(O)c1C(=O)O | inactive: 0.947
OCCOCCN1CCN(C2=Nc3ccccc3Sc3ccccc32)CC1 | inactive: -0.329
COc1cccc2c1C(=O)c1c(O)c3c(c(O)c1C2=O)C[C@@](O)(C(=O)CO)C[C@@H]3O[C@H]1C[C@H](N)[C@H](O)[C@H](C)O1 | active: 4.43
NC(=O)SC[C@H](N)C(=O)O | inactive: 0.525
COc1cc(-c2coc3cc(OCc4ccccc4)c(OC)c(O)c3c2=O)cc(OCc2ccccc2)c1OC | inactive: -6.14
Cc1cccc(C(=O)O)c1O | inactive: 0.622
Cc1ccc2c(Br)cc(Br)c(OC(=O)c3ccccc3)c2n1 | inactive: 2.51
CN[C@@H]1[C@H](O[C@H]2[C@H](O[C@H]3[C@H](O)[C@@H](O)[C@H](N=C(N)N)[C@@H](O)[C@@H]3N=C(N)N)O[C@@H](C)[C@]2(O)C=O)O[C@@H](CO)[C@H](O)[C@H]1O | inactive: 0.553
COC(=O)Nc1nc2cc(C(=O)c3ccccc3)ccc2[nH]1 | inactive: -5.75
